Laboratory results: publication PMC7411789
For part of these data: A negative result means that nothing was seen under these conditions.

Sequences of proteins named here, by UniProt entry; tags and fusion partners are left off. Residues count along the entry.
UniProt P02769, 25-607: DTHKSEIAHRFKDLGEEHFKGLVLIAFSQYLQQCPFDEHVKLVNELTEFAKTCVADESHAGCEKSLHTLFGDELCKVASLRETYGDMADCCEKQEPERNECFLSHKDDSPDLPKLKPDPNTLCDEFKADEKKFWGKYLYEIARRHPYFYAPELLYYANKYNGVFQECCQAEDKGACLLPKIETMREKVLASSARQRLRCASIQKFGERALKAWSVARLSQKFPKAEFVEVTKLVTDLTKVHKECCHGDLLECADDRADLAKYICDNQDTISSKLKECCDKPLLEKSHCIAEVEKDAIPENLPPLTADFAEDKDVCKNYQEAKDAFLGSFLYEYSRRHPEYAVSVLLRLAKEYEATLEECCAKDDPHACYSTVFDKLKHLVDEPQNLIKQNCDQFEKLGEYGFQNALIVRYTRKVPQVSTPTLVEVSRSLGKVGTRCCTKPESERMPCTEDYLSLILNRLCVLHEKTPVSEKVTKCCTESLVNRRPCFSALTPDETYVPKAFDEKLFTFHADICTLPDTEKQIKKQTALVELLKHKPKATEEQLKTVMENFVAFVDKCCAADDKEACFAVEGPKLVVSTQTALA

Legend:
[1] = biological target: BSA (bovine) (UniProt P02769); assay: antibody-aptamer sandwich plate assay, GDH activity read-out; conditions: ZF-GDH label, BAF293 capture, BSA in place of VEGF; TBS: 10 mM Tris-HCl, 100 mM NaCl, pH 7.0; washes with 0.05% Tween-20, block 4% skim milk; 25 °C, 1 h; commercial protein; folded or branched DNA
[2] = test system: VEGF; assay: as above; conditions: ZF-GDH label, BAF293 capture, TBS: 10 mM Tris-HCl, 100 mM NaCl, pH 7.0, washes with 0.05% Tween-20, block 4% skim milk, 25 °C, 1 h, commercial protein, folded or branched DNA

“GATGCGTGGGCGAGGTACCAAAAGATGATCTTGGGCCCGTCCGAATGGTGGGTGTTCTCGCCCACGCATC [2G19-Z]”: no binding [1]; binds ([2]; 0-100 nM VEGF).
“TATGCGTGGGCGACTTTTGTCGCCCACGCATATGTGGGGGTGGACGGGCCGGGTAGA [V7t1-Z]”: binds ([2]; 100 nM VEGF).
